Test results taken from patent US9175030B2, “Derivatives of avicin D and methods of making and using thereof” (priority 2012, dated 2015).
At least one structure is not confirmed: it was looked up by name or label, or the drawing left a doubt.

Test system: p(IL6-κB)350hu.IL6P-Luc in HEK 293T cells
Experiment: TNF-induced NF-κB luciferase reporter in HEK 293T cells with and without GR (FIG. 3)
Type: cell-based
From the text: However, TNF-induced activation of p(IL6-κB)350hu.IL6P-Luc was inhibited by both avicin D and Dex in HEK 293T cells transfected with GR (FIG. 3). […] This observation supports the notion that avicins are not able to induce GR transactivation.

SMILES: C[C@@H]1C[C@H]2[C@@H]3CCC4=CC(=O)C=C[C@]4(C)[C@@]3(F)[C@@H](O)C[C@]2(C)[C@@]1(O)C(=O)CO [dexamethasone]
- TNF-induced activation of p(IL6-κB)350hu.IL6P-Luc (HEK 293T cells transfected with GR): inhibited
- luciferase activity (wild type HEK 293T cells (no GR)): neither avicin D nor dexamethasone had an effect
